PubChem BioAssay AID720505 | Drosophila RNAi Screening Center, 2013
The deposit covers about 20,000 reagents; shown is a random part of those that have a named target and a result. Over the whole deposit, about 2,100 (10%) got an active call. 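Raw plate signals without normalisation; calls rest on control-based scores that were not deposited; replicate 2 separates called from uncalled poorly.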 Not given: the amount of reagent, the time to read-out.

- Assay: 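Genes needed for store-operated calcium entry in fly cells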 (primary screen)
- Cells: Drosophila S2R+ cells
- Knock-down reagent: long dsRNA against Drosophila genes
- Challenge: thapsigargin (2 µM) in calcium-free buffer to empty internal stores, then 2 mM calcium added back
- Read-out: 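Fluo-4 signal in 384-well plates read on a FLIPR after thapsigargin (2 µM, calcium-free) store depletion and 2 mM calcium add-back; unnormalised mean endpoint per well; screen run twice, selected wells retested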
- Scale: calcium signal and retest calcium signal: higher = more calcium entry after store depletion
- Hit rule: 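Knock-downs counted as hits when calcium entry dropped relative to STIM1 positive and Rho1 negative controls present on each plate; roughly 1500 genes called, with reductions of differing size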
- Meaning of the calls: active = called as lowering calcium entry; inactive = not called

Gene	DRSC id	calcium signal, replicate 1	calcium signal, replicate 2	retest calcium signal, replicate 1	retest calcium signal, replicate 2	call
Pglym87 (Phosphoglyceromutase 87)	DRSC15252	119	123			inactive
CG15537	DRSC15073	135	119			inactive
CG14401	DRSC02385	135	115			inactive
CG14401	DRSC21710	149	71.7			inactive
CG3168	DRSC18287	117	106			inactive
CG15247	DRSC17976	140	126			inactive
sens-2 (senseless-2)	DRSC02136	143	131			inactive
sens-2 (senseless-2)	DRSC02613	151	121			inactive
sens-2 (senseless-2)	DRSC21374	137	81.5			inactive
CG34144 (retired record)	DRSC18885					active
CG34144 (retired record)	DRSC19380	89.8	82.3			inactive
CG34144 (retired record)	DRSC19480	109	85.9			inactive
CG34144 (retired record)	DRSC23284	95.4	134			inactive
TBC1D16 (TBC1 domain family member 16)	DRSC02841	192	153			inactive
Ugt302K1 (UDP-glycosyltransferase family 302 member K1)	DRSC16086	68.7	81.9			active
RpS10a (Ribosomal protein S10a)	DRSC14161	119	129			inactive
Mrp5 (Multidrug resistance protein 5)	DRSC15597	240	175			inactive
Mrp5 (Multidrug resistance protein 5)	DRSC15598	164	210			inactive
CG3663	DRSC04402	190	114			inactive
CG4854	DRSC15663	100	91.9			inactive
CG15525	DRSC15062	175	150			inactive
Nelf-A (Negative elongation factor A)	DRSC15903	187	239			inactive
CG4282	DRSC06865	147	95			inactive
robl (roadblock)	DRSC07674	184	150			inactive
Cad96Cb (Cadherin 96Cb)	DRSC14243	175	173			inactive
Cad96Cb (Cadherin 96Cb)	DRSC14665	191	128			inactive
Cngl (Cyclic nucleotide-gated ion channel-like)	DRSC19089	87.4	91.4			inactive
Cngl (Cyclic nucleotide-gated ion channel-like)	DRSC19795	164	104			inactive
Cngl (Cyclic nucleotide-gated ion channel-like)	DRSC20318	75.7	53			active
Nop56	DRSC14699	132	164			inactive
ND-51L2 (NADH dehydrogenase (ubiquinone) 51 kDa subunit-like 2)	DRSC07080	129	198			inactive
thr (three rows)	DRSC07706	131	87.6			inactive
CG6136	DRSC15975	97	105			inactive
CG14742	DRSC14962	108	99.4			inactive
trn (tartan)	DRSC11407	68.5	72.3			active
CR42785 (pseudo)	DRSC04962	80.6	90.3			inactive
Poxm (Pox meso)	DRSC16793	143	115	6482	127	inactive
Poxm (Pox meso)	DRSC22839	110	107			inactive
sc (scute)	DRSC18830	78.3	103			inactive
CG14072	DRSC02375	140	166			inactive
ken (ken and barbie)	DRSC04696	102	92.9			inactive
ken (ken and barbie)	DRSC23196	98.4	145			inactive
CG42326	DRSC06483	102	147			inactive
CG42326	DRSC06484	136	152			inactive
heix (heixuedian)	DRSC03542	76.9	85.4			inactive
ZAP3	DRSC17852	130	120			inactive
ZAP3	DRSC17853	68.8	75.5			active
ZAP3	DRSC18249	118	94.2			inactive
dpr9 (defective proboscis extension response 9)	DRSC14534	150	144			inactive
dpr9 (defective proboscis extension response 9)	DRSC14985	138	117			inactive
dpr9 (defective proboscis extension response 9)	DRSC14986	139	132			inactive
CG3436	DRSC00605	50.3	69.3			active
stwl (stonewall)	DRSC11400	94.5	111			inactive
dpr19 (defective proboscis extension response 19)	DRSC02237	178	129			inactive
Nep3 (Neprilysin 3)	DRSC20685	75.6	144			active
CG18417	DRSC10319	75.7	64.8			inactive
Acp29AB (Accessory gland protein 29AB)	DRSC01857	163	144			inactive
Xxylt (Xyloside xylosyltransferase)	DRSC04107	193	151			inactive
Fign (Fidgetin)	DRSC00592	124	186			inactive
CG17217	DRSC02592	93.1	108			inactive
Alas (Aminolevulinate synthase)	DRSC04044	145	81.2			inactive
PTP-ER (Protein tyrosine phosphatase-ERK/Enhancer of Ras1)	DRSC04636	209	78.7			inactive
PTP-ER (Protein tyrosine phosphatase-ERK/Enhancer of Ras1)	DRSC23325	115	148			inactive
CG34251	DRSC09500					active
CG10853	DRSC08164	87.2	99.7			inactive
Arpc5 (Actin-related protein 2/3 complex, subunit 5)	DRSC00730	146	118			inactive
ppk20 (pickpocket 20)	DRSC16260	133	111			inactive
CG13954	DRSC06442	121	102			inactive
CG12766	DRSC08295	95.8	70.5			inactive
CG4882	DRSC04495	116	239			inactive
Prim2 (DNA primase subunit 2)	DRSC11610	118	91			inactive
CG7632	DRSC11842	65.3	136			active
CG13872	DRSC06431	165	168			inactive
Grl36b (Gustatory receptor-like 36b)	DRSC01627	75.5	208			inactive
CG42233	DRSC14328	96	106			inactive
CG42233	DRSC15416	70.8	150			inactive
Elp5 (Elongator complex protein 5)	DRSC08547	77.7	80.3			inactive
Octbeta3R (Octopamine beta3 receptor)	DRSC15351	152	98.5			inactive
Octbeta3R (Octopamine beta3 receptor)	DRSC16191	174	111			inactive
Octbeta3R (Octopamine beta3 receptor)	DRSC21853	85.4	168			inactive
Octbeta3R (Octopamine beta3 receptor)	DRSC21902	117	320			inactive
Octbeta3R (Octopamine beta3 receptor)	DRSC22350	76.2	210			active
CR18166 (pseudo)	DRSC18147	60.1	89			active
Hasp (Hig-anchoring scaffold protein)	DRSC02022	116	108			inactive
Spn42Da (Serpin 42Da)	DRSC05025	79.5	112			inactive
CG13050	DRSC09931	73.7	125			active
DNaseII (Deoxyribonuclease II)	DRSC16310	151	250			inactive
CG4199	DRSC18519	112	122			inactive
CG4199	DRSC21314	103	95.3			inactive
CCAP-R (Crustacean cardioactive peptide receptor)	DRSC14891	263	143			inactive
CCAP-R (Crustacean cardioactive peptide receptor)	DRSC15967	293	174			inactive
rumpel	DRSC18436	319	77.5			inactive
CG32547	DRSC19263	62.8	76.3			inactive
CG32547	DRSC19265	64.2	69.8			inactive
CG32547	DRSC19474	86.7	119			inactive
CG32547	DRSC19626	98.6	116			inactive
CG13155	DRSC06280	128	192			inactive
CG45105	DRSC15002	146	164			inactive
CG45105	DRSC15833	127	144			inactive
CG34202	DRSC05907	80	109			inactive
CG14383	DRSC14841	92.7	85.4			inactive
Lgr4 (Leucine-rich repeat-containing G protein-coupled receptor 4)	DRSC18970					active
Lgr4 (Leucine-rich repeat-containing G protein-coupled receptor 4)	DRSC19884	109	92.3			inactive
CG8142	DRSC20086	169	169			inactive
Tom (Twin of m4)	DRSC11306	106	145			inactive
TBPH (TAR DNA-binding protein-43 homolog)	DRSC04660	108	97.2			inactive

Records listed above called active, once more:
Gene	DRSC id	calcium signal, replicate 1	calcium signal, replicate 2	retest calcium signal, replicate 1	retest calcium signal, replicate 2	call
CG34144 (retired record)	DRSC18885					active
Ugt302K1 (UDP-glycosyltransferase family 302 member K1)	DRSC16086	68.7	81.9			active
Cngl (Cyclic nucleotide-gated ion channel-like)	DRSC20318	75.7	53			active
trn (tartan)	DRSC11407	68.5	72.3			active
ZAP3	DRSC17853	68.8	75.5			active
CG3436	DRSC00605	50.3	69.3			active
Nep3 (Neprilysin 3)	DRSC20685	75.6	144			active
CG34251	DRSC09500					active
CG7632	DRSC11842	65.3	136			active
Octbeta3R (Octopamine beta3 receptor)	DRSC22350	76.2	210			active
CR18166 (pseudo)	DRSC18147	60.1	89			active
CG13050	DRSC09931	73.7	125			active
Lgr4 (Leucine-rich repeat-containing G protein-coupled receptor 4)	DRSC18970					active
